In patent US20250122280A1, “ANTI-Ly6E ANTIBODIES, IMMUNOCONJUGATES, AND USES THEREOF” (Genentech, Inc., priority 2022, published 2025):
These are yes or no findings as the source states them, for the method shown. Some results given as binding are weak or reduced against the parent protein; the word gives no strength.

Tests used:
[1] = molecular target: T1, Ly6E on cell lines known to express Ly6E (Kuramochi, NCI-H1781, HCC1569x2) (human) (UniProt Q16553); experiment: flow cytometry on two Ly6E-expressing cell lines
T1 sequence: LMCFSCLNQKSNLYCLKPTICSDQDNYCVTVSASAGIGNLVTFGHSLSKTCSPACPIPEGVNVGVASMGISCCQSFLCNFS

[2] = molecular target: T1, Ly6E on cell lines known to express Ly6E (Kuramochi, NCI-H1781, HCC1569x2) (human); experiment: flow cytometry on cell lines known to express Ly6E
[3] = molecular target: T1, Ly6E on cell lines known to express Ly6E (Kuramochi, NCI-H1781, HCC1569x2) (human); experiment: flow cytometry on HCC1569x2 cells
[4] = molecular target: T1, Ly6E on cell lines known to express Ly6E (Kuramochi, NCI-H1781, HCC1569x2) (human); experiment: flow cytometry on NCI-H1781 cells

Measured: binding

B1: humanized anti-Ly6E (comprising SEQ ID NOs. 3 and 5) (antibody, human IgG1, kappa, V domains shown)
VH: EVQLVESGGGLVQPGGSLKLSCAASGFTFSTVAMHWVRQASGKGLEWVGRIRTKPVNYETYYADSVKGRFTISRDDSKSTVYLQMNSLKTEDTAVYYCSAPNYYDGTYSFAYWGQGTLVTVSS
VL: DIQMTQSPSSLSASVGDRVTITCKASQNVGSNVDWYQQKPGKAPKLLIYKASNRYTGVPSRFSGSGSGTDFTFTISSLQPEDIATYYCMQSETKYTFGQGTKVEIKR
notes: also called the humanized version; 3A3.v2.D92E
binds: all assays above
